This is an account of results in the supplement of paper PMC12462457.

This assay relates to OVCAR8. Nature of the assay: cell count relative to DMSO vehicle (fold change); higher = more surviving senescent cells (less killing). As to conditions: senescence inducer: cisplatin 10 µM 48 h, then 6 d recovery (CP senescent), exposure time 24 h.

Structures can show the parent of a compound that is named as a salt. ± gives the standard deviation of the averaged measurements. The list shows a part of the results. Single values are uncertain here, since repeats match poorly.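 Cell counts came from imaging DAPI-stained nuclei, excluding as dead any cells lacking phalloidin-stained cytoplasm. Counts per well were normalized to the median vehicle-well count on that plate, and the values were averaged over two replicate plates.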

With `CCCCc1nc2cc(/C=C/C(=O)NO)ccc2n1CCN(CC)CC` [Pracinostat (SB939)], the cell count (compound dose 1 µM) is 0.468 ± 0.0078 and the cell count (compound dose 5 µM) was 0.267 ± 0.067.
For the molecule `CS(=O)(=O)c1ncc(Cl)c(C(=O)O)n1`, the cell count came out at 0.73 ± 0.057 (compound dose 1 µM) and 0.521 ± 0.15 (compound dose 5 µM).
For `CCc1c(C)sc(NC(=S)NC(=O)c2ccc(Cl)cc2)c1C(N)=O`, the cell count runs as follows: (compound dose 1 µM) 1.02 ± 0.11; (compound dose 5 µM) 0.61 ± 0.17.
As to `N=C(N)Nc1ccc(C(=O)Oc2ccc3cc(C(=N)N)ccc3c2)cc1` [Nafamostat (mesylate)], the cell count is 1.15 ± 0.03 (compound dose 1 µM) and 0.807 ± 0.61 (compound dose 5 µM).
Regarding `NCCN1C(=O)c2cccc3c(Sc4ccc(Br)cc4)ccc(c23)C1=O`, the cell count is 1.07 ± 0.16 (compound dose 1 µM) and 1.22 ± 0.073 (compound dose 5 µM).
For `CC(C)=CC[C@@H](O)C1=CC(=O)c2c(O)ccc(O)c2C1=O` [Shikonin], the cell count reads like this: (compound dose 1 µM) 0.992 ± 0.14; (compound dose 5 µM) 0.981 ± 0.18.
Consider `COc1ccc2ccc(=O)oc2c1CC=C(C)C` [Osthole], for which the cell count reads like this: (compound dose 1 µM) 0.736 ± 0.054; (compound dose 5 µM) 0.816 ± 0.068.
Regarding `CC(=O)Oc1ccccc1C(=O)O`, the cell count was found to be 1.024 ± 0.0035 (compound dose 1 µM) and 0.87 ± 0.36 (compound dose 5 µM).
For the molecule `O=c1oc2cc(O)ccc2c2ccc(O)cc12` [Urolithin A], the cell count reads like this: (compound dose 1 µM) 1.08 ± 0.079; (compound dose 5 µM) 0.747 ± 0.16.
Take `NCCCCCCNS(=O)(=O)c1cccc2c(Cl)cccc12` [W-7 (hydrochloride)]: the cell count stood at 1.23 ± 0.063 (compound dose 1 µM) and 1.17 ± 0.18 (compound dose 5 µM).
For `C[C@H](NC(=O)/C(C#N)=C/c1cccc(Br)n1)c1ccccc1` the same measures were 0.864 ± 0.062 and 0.388 ± 0.068.
For the molecule `CC1(C)CC[C@]2(C(=O)n3ccnc3)CC[C@]3(C)[C@H](C(=O)C=C4[C@@]5(C)C=C(C#N)C(=O)C(C)(C)[C@@H]5CC[C@]43C)[C@@H]2C1`, the cell count is, setting by setting: (compound dose 1 µM) 0.0955 ± 0.0092; (compound dose 5 µM) 0.0205 ± 0.029.
With `O=c1[nH]c(=S)[nH]c(-c2ccccc2)c1Cc1c(O)ccc2ccccc12` [Cambinol], the cell count by setting is: (compound dose 1 µM) 1.11 ± 0.24; (compound dose 5 µM) 1.12 ± 0.34.
For `CCCC(=O)c1c(O)c(Cc2c(O)c(Cc3c(O)c(C)c(OC)c(C(=O)CCC)c3O)c(O)c(C(=O)[C@@H](C)CC)c2O)c(O)c(C)c1OC` [Agrimol B], the cell count by setting is: (compound dose 1 µM) 0.962 ± 0.17; (compound dose 5 µM) 0.826 ± 0.12.
On the same counts, the results for `Cn1nc(C(F)(F)F)cc1-c1ccc(OCc2ccc(Cl)cc2)c(-c2cc(C(F)(F)F)cc(C(F)(F)F)c2)c1O` are 1.04 ± 0.051 and 1.07 ± 0.34.
On to `CN[C@@H](C)C(=O)N[C@H](C(=O)N1CCC[C@H]1C(=O)N[C@H]1c2ccccc2C[C@H]1OCC#CC#CCO[C@@H]1Cc2ccccc2[C@@H]1NC(=O)[C@@H]1CCCN1C(=O)[C@@H](NC(=O)[C@H](C)NC)C1CCCCC1)C1CCCCC1`, for which the cell count reads like this: (compound dose 1 µM) 0.133 ± 0.062; (compound dose 5 µM) 0.0775 ± 0.035.
As for `CN1CCC(c2c(O)cc(O)c3c(=O)cc(-c4ccccc4Cl)oc23)C1CO` (centres undefined) [Riviciclib hydrochloride], the cell count came to 1.06 ± 0.026 (compound dose 1 µM) and 0.772 ± 0.027 (compound dose 5 µM).
As to `C=C(C)[C@H](CC=C(C)C)Cc1c(O)cc(O)c2c1O[C@H](c1ccc(O)cc1O)CC2=O` [Sophoraflavanone G], the cell count reads like this: (compound dose 1 µM) 1.29 ± 0.28; (compound dose 5 µM) 1.21 ± 0.38.
On the same counts, the results for `Nc1cccc2c1C(=O)N(C1CCC(=O)NC1=O)C2=O` (centres undefined) [Pomalidomide] are 0.866 ± 0.076 and 0.897 ± 0.12.
With `Cl.Cl.N=C(N)c1ccc2nc(-c3ccc(-c4nc5ccc(C(=N)N)cc5[nH]4)[se]3)[nH]c2c1` [DB1976 (dihydrochloride)], the cell count stood at 1.29 ± 0.037 (compound dose 1 µM) and 1.03 ± 0.28 (compound dose 5 µM).
`COc1ccc(S(=O)(=O)Nc2cc(-c3c(O)ccc4ccccc34)c(O)c3ccccc23)cc1`: the cell count is 0.865 ± 0.09 (compound dose 1 µM) and 0.533 ± 0.15 (compound dose 5 µM).
Regarding `O=C1Nc2ccccc2/C1=C1/Nc2ccccc2C1=O` [Indirubin], the cell count is 0.688 ± 0.18 (compound dose 1 µM) and 0.732 ± 0.11 (compound dose 5 µM).
Turning to `COc1cc(C(=O)O)ccc1NC(=O)[C@@H]1N[C@@H](CC(C)(C)C)[C@](C#N)(c2ccc(Cl)cc2F)[C@H]1c1cccc(Cl)c1F` [Idasanutlin], the cell count is, setting by setting: (compound dose 1 µM) 1.08 ± 0.059; (compound dose 5 µM) 0.896 ± 0.024.
Take `CC1(C)CCC(C)(C)c2cc(NC(=O)c3ccc(C(=O)O)cc3)ccc21` [Tamibarotene]: the cell count reads like this: (compound dose 1 µM) 1.18 ± 0.063; (compound dose 5 µM) 1.16 ± 0.15.
For `Cc1cc(C)c(Nc2ccnc(Nc3ccc(C#N)cc3)n2)c(C)c1` [Dapivirine], the cell count is, setting by setting: (compound dose 1 µM) 0.901 ± 0.019; (compound dose 5 µM) 0.894 ± 0.042.
For `C[n+]1cc2c3c(ccc2c2ccc4cc5c(cc4c21)OCO5)OCO3`, the cell count reads like this: (compound dose 1 µM) 0.755 ± 0.17; (compound dose 5 µM) 0.0875 ± 0.049.
For `Nc1ncnc2c1ncn2[C@@H]1O[C@H](CO)[C@@H](O)[C@H]1O` [Adenosine] the same measures were 1.38 ± 0.14 and 0.853 ± 0.35.
`CC(=O)O[C@@]12CO[C@@H]1C[C@H](O)[C@@]1(C)C(=O)[C@H](O)C3=C(C)[C@@H](OC(=O)[C@H](O)[C@@H](NC(=O)OC(C)(C)C)c4ccccc4)C[C@@](O)([C@@H](OC(=O)c4ccccc4)[C@H]21)C3(C)C` [Docetaxel]: the cell count (compound dose 1 µM) was 0.778 ± 0.11 and the cell count (compound dose 5 µM) came out at 0.667 ± 0.07.
With `O=C(/C=C/c1ccccc1)NC(NC(=S)Nc1cccc2cccnc12)C(Cl)(Cl)Cl` (centres undefined) [Salubrinal], the cell count (compound dose 1 µM) was 0.928 ± 0.18 and the cell count (compound dose 5 µM) is 1.0925 ± 0.00071.
As for `CO[C@H]1C[C@@H]2CC[C@@H](C)[C@@](O)(O2)C(=O)C(=O)N2CCCC[C@H]2C(=O)O[C@H]([C@H](C)C[C@@H]2CC[C@@H](OCCO)[C@H](OC)C2)CC(=O)[C@H](C)/C=C(\C)[C@@H](O)[C@@H](OC)C(=O)[C@H](C)C[C@H](C)/C=C/C=C/C=C/1C` [Everolimus], the cell count by setting is: (compound dose 1 µM) 0.872 ± 0.079; (compound dose 5 µM) 0.635 ± 0.091.
For `Nc1ccn([C@@H]2O[C@H](CO)[C@@H](O)C2(F)F)c(=O)n1` [Gemcitabine] the same measures were 1.077 ± 0.0035 and 0.878 ± 0.076.
Take `Nc1ccn([C@@H]2O[C@H](CO)[C@@H](O)C2(F)F)c(=O)n1` [Gemcitabine HCl]: the cell count runs as follows: (compound dose 1 µM) 1.13 ± 0.054; (compound dose 5 µM) 0.734 ± 0.25.
